According to patent publication US20250195463A1, “ORGANOMETALLIC COMPLEX, CONTROLLED-RELEASE MULTI-FUNCTIONAL DRUG, PHARMACEUTICAL COMPOSITION, PROCESSES FOR THE PREPARATION THEREOF AND THEIR USE” (FACULDADE DE CIÊNCIAS DA UNIVERSIDADE DE LISBOA, priority 2022, published 2025):
Several values for one entry are separate records, joined by “and”; a condition that tells them apart may be missing. Equal entries are not always repeated. At least one structure is not confirmed: it was looked up by name or label, or the drawing left a doubt. *1 amine or outer side, *2 acyl side, *3 side chain or, on linkers, in order; H or OH if unused. Where a SMILES comes first, the peptide text is derived from it. [ ]: non-standard residue; d: D form. The star is where a group is joined. X2 = CC(CCC(=O)[*:2])=NN[*:1]; X1 = O=C(C1=CC=CC1)*

How the values were obtained:
[1] = Release profile of complex 4 from conjugate RuPC1 by analytical RP-HPLC; type: physicochemical; conditions: 1:9 acetonitrile/phosphate buffer, room temperature
[2] = test system: four human breast cancer cell lines with different levels of expression of the receptor FGFR; experiment: MTT cytotoxicity assay, comparisons across the cell line panel; type: cell-based; conditions: SK-BR-3 and MDA-MB-134-VI versus MDA-MB-231 and MCF-7
Protocol: By way of example, the in vitro cytotoxicity of the conjugate RuPC1, complex 4 and peptide P2 was determined in four human breast cancer cell lines with different levels of expression of the receptor FGFR, namely MDA-MB-231 (FGFR−), MCF-7 (FGFR−), SK-BR-3 (FGFR+), and MDA-MB-134-VI (FGFR+). The cytotoxicity of RuPC1 was also determined in the stated cell lines at controlled pH 6.8 and 7.4. The cytotoxicity of the complexes 5, 8, 9, and the reference complex (2,2′-bipyridyl)(triphenylphosphane)(f-cyclopentadienyl)ruthenium(II) trifluoromethanesulfonate, [RuCp(PPh3)(bipy)][CF3SO3] (TM34) was only determined in the cell line MDA-MB-231. […] The cell viability was evaluated resorting to the MTT ([3-(4,5-dimethylthiazol-2-yl)-2,5-diphenyltetrazolium bromide]) colorimetric assay, which is based on the reduction of the tetrazolium salt to purple formazan by mitochondrial dehydrogenases in metabolically active cells. […] The cell viability (%) was determined relative to the control (cells incubated without compounds) by measuring the absorbance at 570 nm on a PowerWave Xs Bio-Tek Instruments plate spectrophotometer. The respective values of the half maximal inhibitory concentration (IC50) were calculated with the software GraphPad Prism. […]

## CC(CCC(=O)N[C@H](C(=O)N[C@@H](CO)C(=O)N1CCC[C@H]1C(=O)N1CCC[C@H]1C(=O)N[C@@H](CC(C)C)C(=O)N[C@H](C(=O)N[C@@H](CC(C)C)C(=O)NCC(=O)N[C@@H](CCC(N)=O)C(=O)N[C@@H](CC(C)C)C(=O)N[C@@H](CC(C)C)C(=O)N[C@@H](CO)C(N)=O)[C@@H](C)O)C(C)C)=NNC(=O)C1=CC=CC1 [conjugate RuPC1, (2,2′-bipyridyl)(triphenylphosphane)(4-((E,Z)-2-η^5-cyclopentadienylformylhydrazineylidene)pentanoyl-VSPPLTLGQLLS)ruthenium(II) trifluoromethanesulfonate] (X1-[X2]VSPPLTLGQLLS-NH2)
[1]; pH 6.8 (tumoral microenvironment), time 0 h
  Percentage release of complex 4: 0.0%
[1]; pH 6.8 (tumoral microenvironment), time 0.75 h
  Percentage release of complex 4: 4.8%
[1]; pH 6.8 (tumoral microenvironment), time 1.5 h
  Percentage release of complex 4: 10.5%
[1]; pH 6.8 (tumoral microenvironment), time 2 h
  Percentage release of complex 4: 17.5%
[1]; pH 6.8 (tumoral microenvironment), time 3 h
  Percentage release of complex 4: 22.6%
[1]; pH 6.8 (tumoral microenvironment), time 4 h
  Percentage release of complex 4: 27.7%
[1]; pH 6.8 (tumoral microenvironment), time 5 h
  Percentage release of complex 4: 33.5%
[1]; pH 6.8 (tumoral microenvironment), time 6 h
  Percentage release of complex 4: 41% and 40.9%
[1]; pH 6.8 (tumoral microenvironment), time 24 h
  Percentage release of complex 4: 79% and 79.1%
[1]; pH 6.8 (tumoral microenvironment), time 50 h
  Percentage release of complex 4: 97% and 97.3%
[1]; pH 7.4 (bloodstream and healthy tissues), time 0 h
  Percentage release of complex 4: 0.0%
[1]; pH 7.4 (bloodstream and healthy tissues), time 0.75 h
  Percentage release of complex 4: 0.3%
[1]; pH 7.4 (bloodstream and healthy tissues), time 1.5 h
  Percentage release of complex 4: 0.4%
[1]; pH 7.4 (bloodstream and healthy tissues), time 2 h
  Percentage release of complex 4: 0.3%
[1]; pH 7.4 (bloodstream and healthy tissues), time 3 h
  Percentage release of complex 4: 0.2%
[1]; pH 7.4 (bloodstream and healthy tissues), time 4 h
  Percentage release of complex 4: 0.6%
[1]; pH 7.4 (bloodstream and healthy tissues), time 5 h
  Percentage release of complex 4: 1.2%
[1]; pH 7.4 (bloodstream and healthy tissues), time 6 h
  Percentage release of complex 4: 4%
[1]; pH 7.4 (bloodstream and healthy tissues), time 24 h
  Percentage release of complex 4: 14% and 13.5%
[1]; pH 7.4 (bloodstream and healthy tissues), time 50 h
  Percentage release of complex 4: 26% and 26.8%
[2]
  Fold more active in the cell lines that overexpress the FGFR than in those that do not overexpress: 1.5 fold
